The results in this text go back to publication PMC7909379.

This assay has as its target TIR-domain-containing adapter-inducing interferon-β (TRIF) (rat (endogenous in P rat nucleus accumbens)). The experiment in a line: co-IP; protein extracts from the NAc of male and female P rats given 3α,5α-THP (15 mg/kg, IP, 30 min) or vehicle; immunoprecipitated with antibody to MyD88 or TRIF, immunoblotted for TLR4 or TLR7 (TLR7 in females only); normal IgG as immunoprecipitation control. Background: A western blot detects proteins with antibodies after separation by electrophoresis.

These are yes or no findings as the source states them, for the method shown. Binding seen in cells or lysates may run through a third protein. A result given as binding can be weak or reduced; the word gives no strength.

B1: toll-like receptor 4 (TLR4) (receptor, UniProt Q9QX05 26-835)
chain: NPCIEVLPNITYQCMDQNLSKIPHDIPYSTKNLDLSFNPLKILRSYSFTNFSQLQWLDLSRCEIETIEDKAWHGLNQLSTLVLTGNPIKSFSPGSFSGLTNLENLVAVETKMTSLEGFHIGQLISLKKLNVAHNLIHSFKLPEYFSNLTNLEHVDLSYNYIQTISVKDLQFLRENPQVNLSLDLSLNPIDSIQAQAFQGIRLHELTLRSNFNSSNVLKMCLQNMTGLHVHRLILGEFKNERNLESFDRSVMEGLCNVSIDEFRLTYINHFSDDIYNLNCLANISAMSFTGVHIKHIADVPRHFKWQSLSIIRCHLKPFPKLSLPFLKSWTLTTNREDISFGQLALPSLRYLDLSRNAMSFRGCCSYSDFGTNNLKYLDLSFNGVILMSANFMGLEELEYLDFQHSTLKKVTEFSVFLSLEKLLYLDISYTNTKIDFDGIFLGLISLNTLKMAGNSFKDNTLSNVFTNTTNLTFLDLSKCQLEQISRGVFDTLYRLQLLNMSHNNLLFLDPSHYKQLYSLRTLDCSFNRIETSKGILQHFPKSLAVFNLTNNSVACICEYQNFLQWVKDQKMFLVNVEQMKCASPIDMKASLVLDFTNSTCYIYKTIISVSVVSVLVVATVAFLIYHFYFHLILIAGCKKYSRGESIYDAFVIYSSQNEDWVRNELVKNLEEGVPRFQLCLHYRDFIPGVAIAANIIQEGFHKSRKVIVVVSRHFIQSRWCIFEYEIAQTWQFLSSRSGIIFIVLEKVEKSLLRQQVELYRLLSRNTYLEWEDNALGRHIFWRRLKKALLDGKALNPDETSEEEQEATTLT
Consider B1, for which the binding result is “binds”.
